The results in this text go back to the supplement of paper PMC11006884.

Protein sequences, listed by entry. Tags and fused reporters are not part of them. Lines headed by an entry give the natural chain unless they say otherwise; changes in a name come on top.
UniProt Q15398: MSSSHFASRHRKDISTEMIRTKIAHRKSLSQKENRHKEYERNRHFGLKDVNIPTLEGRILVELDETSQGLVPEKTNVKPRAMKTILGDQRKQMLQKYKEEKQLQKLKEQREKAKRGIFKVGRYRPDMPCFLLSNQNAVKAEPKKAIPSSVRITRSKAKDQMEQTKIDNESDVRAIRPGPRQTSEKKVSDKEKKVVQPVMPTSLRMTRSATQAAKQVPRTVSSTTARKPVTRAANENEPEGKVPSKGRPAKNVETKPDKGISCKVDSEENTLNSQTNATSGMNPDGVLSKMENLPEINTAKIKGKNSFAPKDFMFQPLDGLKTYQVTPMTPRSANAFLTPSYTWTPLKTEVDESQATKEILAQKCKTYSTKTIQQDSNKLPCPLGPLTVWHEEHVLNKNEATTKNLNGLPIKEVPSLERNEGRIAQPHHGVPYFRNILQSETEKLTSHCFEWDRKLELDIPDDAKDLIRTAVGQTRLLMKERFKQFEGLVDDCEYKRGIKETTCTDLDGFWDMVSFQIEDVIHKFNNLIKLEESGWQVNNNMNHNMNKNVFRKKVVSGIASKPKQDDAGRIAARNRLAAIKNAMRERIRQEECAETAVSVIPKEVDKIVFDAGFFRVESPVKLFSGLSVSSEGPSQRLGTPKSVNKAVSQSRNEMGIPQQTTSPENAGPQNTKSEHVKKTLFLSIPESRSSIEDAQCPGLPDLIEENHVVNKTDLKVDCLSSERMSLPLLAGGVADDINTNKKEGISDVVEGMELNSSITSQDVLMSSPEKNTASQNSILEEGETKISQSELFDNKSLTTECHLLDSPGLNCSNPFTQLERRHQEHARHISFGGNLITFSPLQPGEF
UniProt Q15652: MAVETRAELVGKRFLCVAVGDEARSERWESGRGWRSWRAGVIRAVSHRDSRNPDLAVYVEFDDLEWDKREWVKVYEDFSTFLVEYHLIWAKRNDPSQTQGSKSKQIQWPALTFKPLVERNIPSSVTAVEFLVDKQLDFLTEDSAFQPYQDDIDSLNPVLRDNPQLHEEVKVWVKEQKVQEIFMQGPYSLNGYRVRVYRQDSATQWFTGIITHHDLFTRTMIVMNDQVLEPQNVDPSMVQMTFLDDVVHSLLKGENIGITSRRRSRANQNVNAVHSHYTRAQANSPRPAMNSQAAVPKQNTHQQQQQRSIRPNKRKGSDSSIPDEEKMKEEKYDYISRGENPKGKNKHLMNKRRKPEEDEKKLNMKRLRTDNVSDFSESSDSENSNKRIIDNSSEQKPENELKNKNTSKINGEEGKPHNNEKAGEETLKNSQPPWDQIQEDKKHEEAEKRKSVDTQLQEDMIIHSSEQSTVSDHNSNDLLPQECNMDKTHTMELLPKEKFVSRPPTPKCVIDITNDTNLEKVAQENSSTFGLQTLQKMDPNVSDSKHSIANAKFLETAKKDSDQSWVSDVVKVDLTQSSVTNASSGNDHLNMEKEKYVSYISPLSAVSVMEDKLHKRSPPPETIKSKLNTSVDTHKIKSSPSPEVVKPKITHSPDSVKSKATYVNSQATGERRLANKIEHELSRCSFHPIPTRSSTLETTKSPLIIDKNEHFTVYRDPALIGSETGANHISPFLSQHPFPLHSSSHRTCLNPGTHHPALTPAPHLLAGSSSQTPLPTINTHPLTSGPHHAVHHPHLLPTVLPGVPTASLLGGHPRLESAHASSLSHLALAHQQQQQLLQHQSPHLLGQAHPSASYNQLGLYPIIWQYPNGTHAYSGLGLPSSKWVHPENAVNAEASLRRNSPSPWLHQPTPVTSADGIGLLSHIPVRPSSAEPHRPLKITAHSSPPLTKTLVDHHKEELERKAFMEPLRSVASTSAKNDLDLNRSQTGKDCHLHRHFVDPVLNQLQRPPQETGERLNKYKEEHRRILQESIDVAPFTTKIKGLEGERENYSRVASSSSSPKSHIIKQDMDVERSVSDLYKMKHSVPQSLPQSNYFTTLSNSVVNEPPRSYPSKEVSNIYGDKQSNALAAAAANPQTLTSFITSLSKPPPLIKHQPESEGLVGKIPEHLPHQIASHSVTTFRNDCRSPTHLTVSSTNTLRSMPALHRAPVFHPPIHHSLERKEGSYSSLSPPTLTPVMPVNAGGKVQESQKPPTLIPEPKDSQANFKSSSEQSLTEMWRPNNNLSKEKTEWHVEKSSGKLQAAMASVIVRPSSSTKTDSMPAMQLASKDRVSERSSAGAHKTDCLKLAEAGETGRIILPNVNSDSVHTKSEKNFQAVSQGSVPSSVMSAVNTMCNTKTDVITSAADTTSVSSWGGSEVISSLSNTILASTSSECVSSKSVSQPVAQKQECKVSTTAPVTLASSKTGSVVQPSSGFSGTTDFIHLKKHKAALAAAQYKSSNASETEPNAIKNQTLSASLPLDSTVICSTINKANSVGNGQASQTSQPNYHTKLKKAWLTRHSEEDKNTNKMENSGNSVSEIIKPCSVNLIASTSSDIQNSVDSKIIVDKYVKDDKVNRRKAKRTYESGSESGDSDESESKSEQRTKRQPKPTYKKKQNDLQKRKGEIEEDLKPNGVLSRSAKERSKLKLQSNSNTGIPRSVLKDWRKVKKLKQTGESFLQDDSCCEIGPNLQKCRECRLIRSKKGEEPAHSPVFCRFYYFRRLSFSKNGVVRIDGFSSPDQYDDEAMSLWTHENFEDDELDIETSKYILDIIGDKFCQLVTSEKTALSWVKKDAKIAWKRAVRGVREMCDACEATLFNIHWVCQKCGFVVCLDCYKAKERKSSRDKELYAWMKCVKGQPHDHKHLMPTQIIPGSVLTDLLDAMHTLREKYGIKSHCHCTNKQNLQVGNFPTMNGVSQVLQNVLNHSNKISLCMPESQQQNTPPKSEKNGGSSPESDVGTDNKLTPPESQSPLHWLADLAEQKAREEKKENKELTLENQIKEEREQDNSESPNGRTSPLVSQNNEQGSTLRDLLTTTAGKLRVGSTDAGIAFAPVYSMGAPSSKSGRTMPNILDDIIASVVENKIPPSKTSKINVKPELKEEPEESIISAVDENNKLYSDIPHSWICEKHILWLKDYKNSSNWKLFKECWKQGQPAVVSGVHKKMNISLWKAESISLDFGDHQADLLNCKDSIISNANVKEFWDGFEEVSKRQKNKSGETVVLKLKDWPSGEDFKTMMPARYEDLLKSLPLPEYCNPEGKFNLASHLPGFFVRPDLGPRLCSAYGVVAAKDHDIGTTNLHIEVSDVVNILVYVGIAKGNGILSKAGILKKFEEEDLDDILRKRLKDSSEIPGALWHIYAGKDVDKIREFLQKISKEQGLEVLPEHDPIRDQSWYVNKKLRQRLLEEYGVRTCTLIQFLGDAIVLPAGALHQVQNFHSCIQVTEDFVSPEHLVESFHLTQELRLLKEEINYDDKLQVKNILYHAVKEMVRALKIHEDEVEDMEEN
UniProt Q53EZ4: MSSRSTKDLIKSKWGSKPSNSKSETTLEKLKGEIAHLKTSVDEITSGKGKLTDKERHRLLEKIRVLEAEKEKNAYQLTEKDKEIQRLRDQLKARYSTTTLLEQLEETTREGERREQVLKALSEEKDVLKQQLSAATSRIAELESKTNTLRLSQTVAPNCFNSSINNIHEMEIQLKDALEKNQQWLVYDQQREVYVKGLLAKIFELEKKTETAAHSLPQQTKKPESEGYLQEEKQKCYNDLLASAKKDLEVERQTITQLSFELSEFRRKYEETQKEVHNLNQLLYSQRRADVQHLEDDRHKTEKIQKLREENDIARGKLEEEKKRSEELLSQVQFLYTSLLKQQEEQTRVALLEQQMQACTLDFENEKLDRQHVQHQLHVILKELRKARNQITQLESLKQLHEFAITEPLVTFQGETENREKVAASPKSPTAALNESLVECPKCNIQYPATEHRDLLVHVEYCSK
UniProt Q2M389: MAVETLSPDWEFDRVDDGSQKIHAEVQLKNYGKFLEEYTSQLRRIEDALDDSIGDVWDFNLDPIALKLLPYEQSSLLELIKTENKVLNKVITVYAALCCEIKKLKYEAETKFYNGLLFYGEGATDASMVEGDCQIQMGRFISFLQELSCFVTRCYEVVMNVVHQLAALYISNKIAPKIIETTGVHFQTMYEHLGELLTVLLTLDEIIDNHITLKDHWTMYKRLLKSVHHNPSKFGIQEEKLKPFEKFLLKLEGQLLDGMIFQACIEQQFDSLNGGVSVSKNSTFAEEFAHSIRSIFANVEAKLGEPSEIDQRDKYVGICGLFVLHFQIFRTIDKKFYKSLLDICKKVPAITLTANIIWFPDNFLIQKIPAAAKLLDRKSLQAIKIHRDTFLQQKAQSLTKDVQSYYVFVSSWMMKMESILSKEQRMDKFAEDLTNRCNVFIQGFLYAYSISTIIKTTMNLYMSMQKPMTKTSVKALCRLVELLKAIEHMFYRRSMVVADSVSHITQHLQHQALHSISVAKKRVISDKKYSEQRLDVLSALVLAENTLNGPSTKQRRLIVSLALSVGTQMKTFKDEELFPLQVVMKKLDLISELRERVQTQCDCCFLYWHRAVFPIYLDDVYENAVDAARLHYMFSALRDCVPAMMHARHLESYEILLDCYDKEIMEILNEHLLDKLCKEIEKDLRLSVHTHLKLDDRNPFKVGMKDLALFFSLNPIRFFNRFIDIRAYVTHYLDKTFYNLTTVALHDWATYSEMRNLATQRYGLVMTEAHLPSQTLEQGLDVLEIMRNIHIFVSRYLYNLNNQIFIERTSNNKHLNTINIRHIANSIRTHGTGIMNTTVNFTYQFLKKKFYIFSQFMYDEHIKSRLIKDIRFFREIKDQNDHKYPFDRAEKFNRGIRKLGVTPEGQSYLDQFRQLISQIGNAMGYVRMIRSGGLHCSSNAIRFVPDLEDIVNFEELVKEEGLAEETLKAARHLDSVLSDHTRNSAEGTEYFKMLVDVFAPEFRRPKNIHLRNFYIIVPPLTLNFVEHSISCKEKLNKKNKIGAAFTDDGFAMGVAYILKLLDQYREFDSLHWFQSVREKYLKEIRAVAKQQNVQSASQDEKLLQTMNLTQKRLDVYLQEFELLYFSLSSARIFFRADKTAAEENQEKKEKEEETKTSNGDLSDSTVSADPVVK
UniProt Q52LJ0: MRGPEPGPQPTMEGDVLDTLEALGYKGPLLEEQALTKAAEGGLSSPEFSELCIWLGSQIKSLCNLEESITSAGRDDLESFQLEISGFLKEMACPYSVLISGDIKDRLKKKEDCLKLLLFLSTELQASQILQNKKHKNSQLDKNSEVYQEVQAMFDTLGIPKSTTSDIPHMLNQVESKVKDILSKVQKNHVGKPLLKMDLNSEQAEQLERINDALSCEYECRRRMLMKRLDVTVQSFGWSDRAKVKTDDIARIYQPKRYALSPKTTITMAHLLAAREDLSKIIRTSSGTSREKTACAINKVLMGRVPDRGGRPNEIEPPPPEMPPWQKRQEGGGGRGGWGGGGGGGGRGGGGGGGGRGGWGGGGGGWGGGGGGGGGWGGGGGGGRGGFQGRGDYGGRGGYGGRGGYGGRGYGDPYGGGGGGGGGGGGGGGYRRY
UniProt Q16527: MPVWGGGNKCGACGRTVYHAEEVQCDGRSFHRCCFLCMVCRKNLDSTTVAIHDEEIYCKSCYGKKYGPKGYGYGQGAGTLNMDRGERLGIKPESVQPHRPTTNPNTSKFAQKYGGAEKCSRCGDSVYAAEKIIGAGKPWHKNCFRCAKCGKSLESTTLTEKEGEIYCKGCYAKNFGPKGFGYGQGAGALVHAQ
UniProt Q15637: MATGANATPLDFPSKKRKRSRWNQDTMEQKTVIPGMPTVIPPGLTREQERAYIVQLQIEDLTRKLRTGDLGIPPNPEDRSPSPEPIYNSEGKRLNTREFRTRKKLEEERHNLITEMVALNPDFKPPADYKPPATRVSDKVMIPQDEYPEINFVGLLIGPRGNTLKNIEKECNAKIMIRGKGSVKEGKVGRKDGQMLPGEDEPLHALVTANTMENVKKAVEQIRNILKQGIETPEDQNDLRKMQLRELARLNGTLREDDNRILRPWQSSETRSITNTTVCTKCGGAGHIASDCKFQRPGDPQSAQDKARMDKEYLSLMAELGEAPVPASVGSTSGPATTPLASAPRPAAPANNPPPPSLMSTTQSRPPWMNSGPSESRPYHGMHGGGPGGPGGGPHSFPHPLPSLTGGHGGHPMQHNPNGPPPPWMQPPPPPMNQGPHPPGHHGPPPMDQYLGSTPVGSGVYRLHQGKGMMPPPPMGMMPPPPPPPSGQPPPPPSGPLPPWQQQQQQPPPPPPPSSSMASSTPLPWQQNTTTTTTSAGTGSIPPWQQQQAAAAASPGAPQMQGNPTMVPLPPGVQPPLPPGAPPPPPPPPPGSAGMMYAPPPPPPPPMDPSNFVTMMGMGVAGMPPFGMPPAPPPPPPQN
UniProt Q16763: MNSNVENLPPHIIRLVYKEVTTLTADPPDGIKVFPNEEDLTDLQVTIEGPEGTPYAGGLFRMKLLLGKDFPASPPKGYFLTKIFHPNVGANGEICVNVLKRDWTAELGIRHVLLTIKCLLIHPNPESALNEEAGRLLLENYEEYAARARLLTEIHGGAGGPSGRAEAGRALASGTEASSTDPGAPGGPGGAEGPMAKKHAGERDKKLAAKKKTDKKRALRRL

The entries are a selection whose mix differs from that of the whole data set. This is a noisy data set.

Compound in this experiment: COC(=O)/C=C/c1ccccc1 [methyl cinnamate]
Description: log2 ratio of iodoacetamide-alkyne labeling of the cysteine site, DMSO over compound (competition); higher = stronger covalent engagement of the cysteine by the compound, active = 1 or more. The conditions noted are these: 500 µM; treatment time 1 h; system: HEK293T cell lysate. The essentials:
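After 1 h at ambient temperature with vehicle or electrophile (500 µM), HEK293T lysate (2 mg/mL) was labelled for 1 h with iodoacetamide alkyne and clicked to sCIP-TMT reagents. Pooled samples were trypsin-digested overnight at 37 °C, streptavidin-enriched, acid-eluted and analysed by Orbitrap Eclipse LC-MS/MS with FAIMS, then quantified in FragPipe over three replicates with duplicate channels. A cysteine's log2 competition ratio is its mean control-channel over mean compound-channel reporter intensity. Cysteines quantified in only one replicate were not included.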
DLGAP5 C448 (UniProt Q15398): the “log2 ratio of iodoacetamide-alkyne labeling” value (“log2 ratio” for short) was inactive: -0.21. Consider PPA1 C254 (UniProt Q15181), for which the “log2 ratio” value is inactive: 0.125. JMJD1C C508 (UniProt Q15652): the “log2 ratio” value is inactive: 0.405. For the target SETDB1 C987 (UniProt Q15047), the “log2 ratio” value was inactive: -0.131.

On to PTPN14 C1082 (UniProt Q15678), for which the “log2 ratio” value was inactive: -0.00302. As to UniProt Q15397_C185, the “log2 ratio” value is inactive: 0.0749. Consider CEP55 C462 (UniProt Q53EZ4), for which the “log2 ratio” value is inactive: 0.153.

Take UniProt Q15149_C3821: the “log2 ratio” value is inactive: -0.0457. Consider UniProt Q2M389_C936, for which the “log2 ratio” value is inactive: 0.212. As for FAM98B C295 (UniProt Q52LJ0), the “log2 ratio” value was inactive: 0.586. As for CSRP2 C122 (UniProt Q16527), the “log2 ratio” value is inactive: -0.045. SF1 C292 (UniProt Q15637): the “log2 ratio” value is inactive: 0.165. UniProt Q15149_C3295: the “log2 ratio” value is inactive: 0.436. In the case of UBE2S C118 (UniProt Q16763) it was inactive: -0.0948; in that of DHCR24 C91 (UniProt Q15392), inactive: 0.222.
